# Assay results: the supplement of paper PMC12823440, “Inhibitors supercharge kinase turnover through native proteolytic circuits” (Nature, 2025)
# The chains behind the UniProt entries cited, without tags or fusion partners. Where a name states a change or a piece, a line headed by the entry shows the natural chain unless it says otherwise.
# UniProt Q9UQM7, whole entry: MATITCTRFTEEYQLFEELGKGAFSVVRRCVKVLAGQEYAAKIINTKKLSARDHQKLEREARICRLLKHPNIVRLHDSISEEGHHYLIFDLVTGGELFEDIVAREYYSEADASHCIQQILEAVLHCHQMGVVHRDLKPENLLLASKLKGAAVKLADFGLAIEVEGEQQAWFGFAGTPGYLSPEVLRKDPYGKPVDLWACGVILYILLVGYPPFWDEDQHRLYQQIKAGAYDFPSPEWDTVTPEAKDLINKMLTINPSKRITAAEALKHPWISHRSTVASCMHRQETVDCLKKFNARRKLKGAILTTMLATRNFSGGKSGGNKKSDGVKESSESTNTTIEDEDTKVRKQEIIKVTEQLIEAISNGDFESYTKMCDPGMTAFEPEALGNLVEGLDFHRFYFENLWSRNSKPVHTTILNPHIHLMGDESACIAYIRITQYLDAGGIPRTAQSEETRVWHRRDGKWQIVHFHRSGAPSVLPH
# UniProt Q13555: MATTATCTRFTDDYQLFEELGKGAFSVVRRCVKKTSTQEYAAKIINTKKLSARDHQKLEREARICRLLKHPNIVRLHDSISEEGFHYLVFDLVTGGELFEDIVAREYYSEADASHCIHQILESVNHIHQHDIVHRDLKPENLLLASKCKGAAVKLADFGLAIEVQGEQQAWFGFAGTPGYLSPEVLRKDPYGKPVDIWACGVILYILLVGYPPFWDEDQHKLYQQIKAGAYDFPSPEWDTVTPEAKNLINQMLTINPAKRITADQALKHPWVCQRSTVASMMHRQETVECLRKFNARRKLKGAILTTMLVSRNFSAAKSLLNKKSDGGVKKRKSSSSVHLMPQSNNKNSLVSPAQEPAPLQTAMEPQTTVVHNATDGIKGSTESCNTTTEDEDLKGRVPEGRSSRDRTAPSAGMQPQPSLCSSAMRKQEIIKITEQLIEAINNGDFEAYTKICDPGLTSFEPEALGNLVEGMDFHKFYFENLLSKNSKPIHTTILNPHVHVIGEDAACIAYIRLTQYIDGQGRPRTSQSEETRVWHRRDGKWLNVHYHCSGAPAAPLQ
# UniProt Q15131: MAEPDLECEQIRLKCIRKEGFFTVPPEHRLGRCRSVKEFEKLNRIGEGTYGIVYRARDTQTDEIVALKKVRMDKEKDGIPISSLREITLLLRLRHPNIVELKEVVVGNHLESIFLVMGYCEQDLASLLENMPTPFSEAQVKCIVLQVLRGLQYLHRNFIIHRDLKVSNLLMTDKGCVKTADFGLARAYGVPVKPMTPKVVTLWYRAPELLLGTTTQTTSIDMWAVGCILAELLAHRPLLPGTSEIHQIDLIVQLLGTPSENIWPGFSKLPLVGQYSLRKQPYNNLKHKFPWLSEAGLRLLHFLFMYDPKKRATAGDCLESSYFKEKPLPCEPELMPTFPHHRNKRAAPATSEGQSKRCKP
# UniProt Q00526: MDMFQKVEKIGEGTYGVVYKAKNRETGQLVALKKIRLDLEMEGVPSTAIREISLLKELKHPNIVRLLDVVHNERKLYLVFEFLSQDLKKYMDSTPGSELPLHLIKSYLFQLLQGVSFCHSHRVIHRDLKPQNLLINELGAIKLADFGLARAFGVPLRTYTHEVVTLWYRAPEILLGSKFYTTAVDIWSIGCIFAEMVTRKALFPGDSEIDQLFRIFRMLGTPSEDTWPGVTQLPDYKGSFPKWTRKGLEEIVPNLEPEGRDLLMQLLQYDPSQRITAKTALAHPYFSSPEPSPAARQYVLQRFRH
# UniProt Q00535, whole entry, looked up: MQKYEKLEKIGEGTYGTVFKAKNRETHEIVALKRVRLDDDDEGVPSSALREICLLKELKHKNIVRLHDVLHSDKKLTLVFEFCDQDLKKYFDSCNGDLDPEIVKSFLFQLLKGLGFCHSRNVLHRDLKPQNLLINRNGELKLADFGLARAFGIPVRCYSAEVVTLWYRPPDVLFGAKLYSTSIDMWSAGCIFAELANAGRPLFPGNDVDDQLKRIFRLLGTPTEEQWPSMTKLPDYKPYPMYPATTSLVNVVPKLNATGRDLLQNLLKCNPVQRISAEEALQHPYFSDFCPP
# UniProt Q00534, whole entry: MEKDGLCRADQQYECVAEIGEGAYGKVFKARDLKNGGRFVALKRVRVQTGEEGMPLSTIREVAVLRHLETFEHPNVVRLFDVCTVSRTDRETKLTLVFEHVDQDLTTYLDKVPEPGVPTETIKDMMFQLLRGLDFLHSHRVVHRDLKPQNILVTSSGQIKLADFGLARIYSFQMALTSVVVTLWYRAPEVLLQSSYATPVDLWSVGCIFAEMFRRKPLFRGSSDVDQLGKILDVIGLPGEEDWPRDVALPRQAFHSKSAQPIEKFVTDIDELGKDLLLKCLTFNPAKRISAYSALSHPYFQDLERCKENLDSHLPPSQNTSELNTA
# UniProt O96017, whole entry: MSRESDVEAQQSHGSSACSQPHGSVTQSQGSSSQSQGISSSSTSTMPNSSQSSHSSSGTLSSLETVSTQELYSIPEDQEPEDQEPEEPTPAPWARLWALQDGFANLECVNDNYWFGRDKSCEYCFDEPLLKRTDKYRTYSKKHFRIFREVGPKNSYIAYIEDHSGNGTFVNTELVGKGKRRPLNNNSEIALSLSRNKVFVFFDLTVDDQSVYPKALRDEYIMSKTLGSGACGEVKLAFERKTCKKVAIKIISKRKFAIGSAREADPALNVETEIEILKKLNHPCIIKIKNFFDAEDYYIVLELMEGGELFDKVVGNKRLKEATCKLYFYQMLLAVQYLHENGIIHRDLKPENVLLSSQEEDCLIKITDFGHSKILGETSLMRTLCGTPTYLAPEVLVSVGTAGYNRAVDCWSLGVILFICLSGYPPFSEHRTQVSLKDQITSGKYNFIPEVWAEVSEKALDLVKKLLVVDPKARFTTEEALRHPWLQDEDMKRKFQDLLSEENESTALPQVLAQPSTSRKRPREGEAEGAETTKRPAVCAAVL
# UniProt P07333, whole entry: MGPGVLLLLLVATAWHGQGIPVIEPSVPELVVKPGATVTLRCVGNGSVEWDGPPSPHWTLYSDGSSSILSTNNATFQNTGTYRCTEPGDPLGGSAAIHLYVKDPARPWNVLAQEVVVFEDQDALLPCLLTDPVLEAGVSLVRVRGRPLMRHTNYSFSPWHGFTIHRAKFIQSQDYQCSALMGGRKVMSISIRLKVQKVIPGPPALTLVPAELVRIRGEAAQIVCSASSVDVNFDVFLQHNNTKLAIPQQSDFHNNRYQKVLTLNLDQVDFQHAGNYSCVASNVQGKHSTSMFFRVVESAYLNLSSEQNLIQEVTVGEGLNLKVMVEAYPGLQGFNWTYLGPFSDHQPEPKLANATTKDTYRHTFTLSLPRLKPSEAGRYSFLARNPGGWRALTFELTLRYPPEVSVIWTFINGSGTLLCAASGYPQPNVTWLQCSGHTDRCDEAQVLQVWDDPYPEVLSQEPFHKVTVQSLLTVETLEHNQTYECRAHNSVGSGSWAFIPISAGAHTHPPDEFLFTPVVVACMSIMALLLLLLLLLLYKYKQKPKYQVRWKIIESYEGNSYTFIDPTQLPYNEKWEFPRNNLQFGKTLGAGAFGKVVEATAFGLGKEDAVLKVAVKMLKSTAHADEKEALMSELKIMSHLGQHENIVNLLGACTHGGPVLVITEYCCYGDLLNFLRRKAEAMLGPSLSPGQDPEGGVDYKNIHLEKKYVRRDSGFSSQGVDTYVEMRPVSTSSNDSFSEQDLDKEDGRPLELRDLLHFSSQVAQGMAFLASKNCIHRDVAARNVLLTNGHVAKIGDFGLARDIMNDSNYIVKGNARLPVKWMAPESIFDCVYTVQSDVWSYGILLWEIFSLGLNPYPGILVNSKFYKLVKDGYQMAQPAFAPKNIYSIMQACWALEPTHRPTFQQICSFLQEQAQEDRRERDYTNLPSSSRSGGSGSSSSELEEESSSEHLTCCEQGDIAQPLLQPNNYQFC
# UniProt P41240: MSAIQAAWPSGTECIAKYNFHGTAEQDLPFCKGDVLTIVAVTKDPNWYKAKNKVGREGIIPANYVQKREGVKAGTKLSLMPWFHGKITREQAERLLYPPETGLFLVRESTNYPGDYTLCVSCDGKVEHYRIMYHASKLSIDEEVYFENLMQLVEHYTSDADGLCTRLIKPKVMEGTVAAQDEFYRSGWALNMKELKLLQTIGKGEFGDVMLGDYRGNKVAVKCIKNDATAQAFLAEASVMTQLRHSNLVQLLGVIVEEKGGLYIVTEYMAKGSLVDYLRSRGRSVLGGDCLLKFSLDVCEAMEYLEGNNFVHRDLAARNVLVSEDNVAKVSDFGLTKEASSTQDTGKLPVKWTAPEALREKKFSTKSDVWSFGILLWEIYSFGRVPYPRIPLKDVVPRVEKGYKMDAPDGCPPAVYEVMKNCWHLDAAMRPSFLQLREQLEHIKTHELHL
# Counter-ions that a name gives are not always drawn. The list shows a part of the results. Hit calls seldom repeat between salt and free forms of one compound.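 Kinases were expressed as nanoluciferase fusions in K562 cells and luminescence was read every 4 h between 2 and 18 h as percent of control, DMSO set to 100% and a positive control to 0%. A time point counts as decreased when the signal drops significantly (2 sigma). The hit call is the authors' own, does not follow from the count of time points alone, and its rule is not shown.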
# Tests used:
# Assay in all cases: number of time points (of 5) at which kinase-Nluc abundance scored as decreased, DMSO-normalised (count); higher = more persistent destabilization
# Conditions in all cases: K562; 2-18 h
# CAMK2A = CAMK2A (UniProt Q9UQM7)
# CAMK2G = CAMK2G (UniProt Q13555)
# CDK10 = CDK10 (UniProt Q15131)
# CDK2 = CDK2 (UniProt P24941)
# CDK3 = CDK3 (UniProt Q00526)
# CDK5 = CDK5 (UniProt Q00535)
# CDK6 = CDK6 (UniProt Q00534)
# CHEK2 = CHEK2 (UniProt O96017)
# CSF1R = CSF1R (UniProt P07333)
# CSK = CSK (UniProt P41240)
SMILES,number of time points (CAMK2A),number of time points (CAMK2G),number of time points (CDK10),number of time points (CDK2),number of time points (CDK3),number of time points (CDK5),number of time points (CDK6),number of time points (CHEK2),number of time points (CSF1R),number of time points (CSK)
COc1ccc(C2CC(c3ccc(Cl)cc3)=NN2c2nc(-c3ccncc3)cs2)cc1 (stereo not given) [mTOR inhibitor-8] (10 µM),0,0,0,0,0,0,0,0,0,0
C[C@@H]1CC[C@]2(C(=O)O)CC[C@]3(C)C(=CC[C@@H]4[C@@]5(C)CC[C@H](O)[C@@](C)(CO)[C@@H]5CC[C@]43C)[C@@H]2[C@]1(C)O [Rotundic acid] (10 µM),0,0,0,0,0,0,0,0,0,0
COC(=O)c1cc2c(OC(C)C)cc(OC(C)C)cc2[nH]1 (2.5 µM),0,0,0,0,0,0,0,0,0,0
CC(=O)Nc1nc(C)c(-c2ccc(Cl)c(S(=O)(=O)NCCO)c2)s1 (10 µM),0,0,0,0,0,0,0,0,0,0
C=CC(=O)N[C@H]1CCOC[C@H]1Nc1ncc2cc(-c3c(Cl)c(OC)cc(OC)c3Cl)ccc2n1 [Fisogatinib] (10 µM),0,0,0,0,0,0,0,0,0,0
CCN1C(C)(C)CC(Oc2ccc(C(=O)Nc3ccc(NC(=O)Nc4cc(C(C)(C)C)on4)cc3)nc2)CC1(C)C (10 µM),0,0,0,0,0,0,0,0,0,0
COc1ccc(COc2cc3oc(=O)c4cc(C(C)O)ccc4c3cc2OC)cc1 (stereo not given) [Palomid 529] (2.5 µM),0,0,0,0,0,0,0,0,0,0
O=c1cc(N2CCOCC2)oc2c1ccc1ccccc12 (2 µM),0,0,0,0,0,0,0,0,0,0
O=C1c2c(O)cc(O)cc2O[C@H](c2cc(O)c(O)c(O)c2)[C@H]1O [Dihydromyricetin] (10 µM),0,0,0,0,0,0,0,0,0,0
C=CC(=O)Nc1cccc(Oc2nc(Nc3ccc(N4CCN(C)CC4)cc3)ncc2Cl)c1 (2.5 µM),0,0,0,0,0,0,0,0,0,0
CC(C)n1nc(C#Cc2ccccc2)c2c(N)ncnc21 (10 µM),0,0,0,0,0,0,0,0,1,0
"CC(=O)c1cc(O)ccc1O [2,5-Dihydroxyacetophenone] (10 µM)",0,0,0,0,0,0,0,0,0,0
CN(c1ccc(C(F)(F)F)cc1)S(=O)(=O)c1ccc(C(=O)Nc2nc(-c3ccccn3)cs2)cc1 (2.5 µM),0,0,0,0,0,0,0,0,0,0
O=C(NCc1cccc(O)c1)c1cc2cc(F)ccc2[nH]1 (10 µM),0,0,0,0,0,0,0,0,0,0
Cc1nc(Nc2ncc(C(=O)Nc3c(C)cccc3Cl)s2)cc(N2CCN(C(=O)CCCCCCC(=O)N[C@H](C(=O)N3C[C@H](O)C[C@H]3C(=O)NCc3ccc(-c4scnc4C)cc3)C(C)(C)C)CC2)n1 (2.5 µM),1,2,2,0,1,0,0,2,2,2
CNS(=O)(=O)C[C@H]1CC[C@H](N(C)c2[nH]cnc3nccc2-3)CC1 [Oclacitinib (maleate)] (10 µM),0,0,0,0,0,0,0,0,0,0
C=CC(=O)N1CCC[C@@H](n2c(=O)n(-c3ccc(Oc4ccccc4)cc3)c3c(N)nccc32)C1 [Tolebrutinib] (10 µM),0,0,0,0,0,0,0,0,0,0

# Some of these compounds in order of length of the SMILES, smallest number first.
SMILES,number of time points (CAMK2A),number of time points (CAMK2G),number of time points (CDK10),number of time points (CDK2),number of time points (CDK3),number of time points (CDK5),number of time points (CDK6),number of time points (CHEK2),number of time points (CSF1R),number of time points (CSK)
COC(=O)c1cc2c(OC(C)C)cc(OC(C)C)cc2[nH]1 (2.5 µM),0,0,0,0,0,0,0,0,0,0
O=C1c2c(O)cc(O)cc2O[C@H](c2cc(O)c(O)c(O)c2)[C@H]1O [Dihydromyricetin] (10 µM),0,0,0,0,0,0,0,0,0,0
CNS(=O)(=O)C[C@H]1CC[C@H](N(C)c2[nH]cnc3nccc2-3)CC1 [Oclacitinib (maleate)] (10 µM),0,0,0,0,0,0,0,0,0,0

# More compounds.

SMILES,number of time points (CAMK2A),number of time points (CAMK2G),number of time points (CDK10),number of time points (CDK2),number of time points (CDK3),number of time points (CDK5),number of time points (CDK6),number of time points (CHEK2),number of time points (CSF1R),number of time points (CSK)
O=c1ccc2cc(O)c(O)cc2o1 [Esculetin] (10 µM),0,0,0,0,0,0,0,0,0,0
N#C/C(=C\c1ccc[nH]1)c1ccc(Cl)c(Cl)c1 (2.5 µM),0,0,0,0,0,0,0,0,0,0
CC(C)(O)c1cc(Nc2cc(Oc3cn(C4CC4)nc3C3CCOCC3)ccn2)ccn1 (10 µM),0,0,0,0,0,0,0,0,0,0
COc1ncc2cc(C(=O)Nc3cc(C(=O)NCc4cccc(Cl)c4)ccc3Cl)c(=O)[nH]c2n1 (2.5 µM),0,0,0,0,0,0,0,0,0,0
O=c1cc(-c2ccc(O)cc2)oc2cc(O)c(O)c(O)c12 [Scutellarein] (10 µM),0,0,0,0,0,0,0,0,0,0
C[C@H]1CNC(=O)c2cnn3ccc(nc23)N[C@H](C)c2cc(F)ccc2O1 [Repotrectinib] (2.5 µM),0,0,1,0,0,0,0,2,0,0
Cc1ncc(F)c(Nc2n[nH]c3c2CN(C(=O)N2C[C@@H](C)N(CC4CCOCC4)C[C@@H]2C)C3(C)C)n1 (10 µM),0,0,0,0,0,0,0,0,0,0
CCCCNc1ncc2c(-c3ccc(CN4CCN(C)CC4)cc3)cn([C@H]3CC[C@H](O)CC3)c2n1 [UNC2025 (hydrochloride)] (2.5 µM),0,0,0,0,0,0,0,0,0,0
O=C(Nc1nccs1)C(c1cc(F)ccc1O)N1Cc2ccc(-c3ccc(N4CCNCC4)cc3)cc2C1=O (racemic) (10 µM),0,0,0,0,0,0,0,0,1,0
COc1cc(OC)c(/C=C/S(=O)(=O)Cc2ccc(OC)c(NCC(=O)O)c2)c(OC)c1 [Rigosertib (sodium)] (10 µM),0,0,0,0,0,0,0,0,3,0
O=C1c2cccc(O)c2C(=O)c2c(O)cccc21 [Danthron] (10 µM),0,0,0,0,0,0,0,0,0,0
O=C(Nc1nc2cccc(-c3ccc(CN4CCS(=O)(=O)CC4)cc3)n2n1)C1CC1 [Filgotinib] (2.5 µM),0,0,0,0,0,0,0,0,0,0
O=C1NCCSc2c1sc1ccc(O)cc21 (2.5 µM),0,0,0,0,0,0,0,0,0,0
O=C(CC(c1ccccc1)C(C(=O)O)C(=O)O)c1ccc(C(F)(F)F)cc1 (stereo not given) (10 µM),0,0,0,0,0,0,0,0,0,0
C=CC(=O)Nc1cccc(Nc2nc(Nc3ccc(Oc4ccnc(C(=O)NC)c4)cc3)ncc2F)c1 (2.5 µM),0,0,0,0,0,0,0,0,0,0
CCc1nc(C(N)=O)c(Nc2ccc(N3CCC(N4CCN(C)CC4)CC3)c(OC)c2)nc1NC1CCC(OC)CC1 (stereo not given) [EML4-ALK kinase inhibitor 1] (2.5 µM),0,0,0,0,0,0,0,0,0,0
